Results are given in words; binding and its absence hold for the method and conditions named. In cells and extracts the contact can be indirect. Some binding calls cover weakened binding; strength is not graded here.

By UniProt entry, the sequences of proteins in these tests, tags left out.
UniProt P39688: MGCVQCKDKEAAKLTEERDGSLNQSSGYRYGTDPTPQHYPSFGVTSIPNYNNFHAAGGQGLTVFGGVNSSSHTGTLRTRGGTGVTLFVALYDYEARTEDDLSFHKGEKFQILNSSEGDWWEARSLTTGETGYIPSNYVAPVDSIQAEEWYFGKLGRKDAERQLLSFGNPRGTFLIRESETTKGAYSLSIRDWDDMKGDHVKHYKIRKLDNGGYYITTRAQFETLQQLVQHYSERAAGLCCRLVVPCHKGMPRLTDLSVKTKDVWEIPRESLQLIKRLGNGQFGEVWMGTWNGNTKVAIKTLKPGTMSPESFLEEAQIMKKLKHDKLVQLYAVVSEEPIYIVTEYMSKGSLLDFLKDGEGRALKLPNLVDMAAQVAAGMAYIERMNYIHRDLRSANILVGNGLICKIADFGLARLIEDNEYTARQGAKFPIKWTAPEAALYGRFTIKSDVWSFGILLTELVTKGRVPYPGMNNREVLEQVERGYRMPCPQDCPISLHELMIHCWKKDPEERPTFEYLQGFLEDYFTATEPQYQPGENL
UniProt P18031: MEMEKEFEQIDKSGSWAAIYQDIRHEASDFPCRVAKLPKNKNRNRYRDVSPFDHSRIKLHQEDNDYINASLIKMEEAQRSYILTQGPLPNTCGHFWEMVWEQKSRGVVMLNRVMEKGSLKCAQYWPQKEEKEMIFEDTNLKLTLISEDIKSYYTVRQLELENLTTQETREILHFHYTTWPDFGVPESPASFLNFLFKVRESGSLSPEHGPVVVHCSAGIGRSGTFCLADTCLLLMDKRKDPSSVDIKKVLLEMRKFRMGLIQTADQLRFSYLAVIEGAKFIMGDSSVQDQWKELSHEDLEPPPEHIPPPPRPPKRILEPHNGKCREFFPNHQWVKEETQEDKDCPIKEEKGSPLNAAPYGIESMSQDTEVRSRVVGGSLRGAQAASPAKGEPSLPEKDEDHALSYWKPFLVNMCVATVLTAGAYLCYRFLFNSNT

The target in this test is Fyn-YN (UniProt P39688). Nature of the test: split reporter; BiFC with YFP fragments YC (155-238) and YN (1-154) in co-transfected CHO-K1 cells on fibronectin-coated coverslips; whole cells, fixed (also live cells and TIRFM), wide-field fluorescence; cells scored as background, ER + punctate or only punctate.

For “YC-PTP1BWT (from UniProt P18031 1-435) (enzyme)”, the binding entry was “binds”.
